Data taken from PubChem BioAssay (NCATS).
This list was built around the results that the source calls inconclusive (neither active nor inactive); the mix of calls is not that of the screen. A call without a number means that no potency is given here. Where the call is inconclusive, the potency comes from a doubtful curve fit. Active and inactive are the calls of the source. Calls come from the whole dose curve; as a rule, active = well fitted inhibition curve with a large enough effect; inconclusive = small, poorly fitted or top-dose-only effect; inactive = no such curve, though single readings can be large or run the other way.

target: Retinaldehyde dehydrogenase 3 (Homo sapiens) (UniProt P47895); assay: qHTS for Inhibitors of the Aldehyde Dehydrogenase Family (ALDH1A3) Validation screen (AID 2061312); conditions: ALDH1A3 enzyme inhibition qHTS validation, fluorescence; series mostly up to 84.7 µM; note: nearly all actives have a fitted effect of over 45% in size
Potency is the fitted concentration of half-maximal effect.

| SMILES | Potency |
| --- | --- |
| O=C(c1ccc(OC(F)F)c(C#Cc2ccccn2)c1)N1Cc2cccnc2C1 | inconclusive: 39.8 µM [inhibitor, partial curve, poor fit] |
| CCCCC(=O)N1c2ccccc2NC2=C(C(=O)CCC2)C1c1ccccc1Cl (centres undefined) | inactive |
| CN1CCc2nc(C(=O)N[C@@H]3C[C@@H](C(=O)N(C)C)CC[C@@H]3NC(=O)C(=O)Nc3ccc(Cl)cn3)sc2C1 | inconclusive: 31.6 µM [inhibitor, full curve, poor fit] |
| Cc1cccc(C2CN(C)CCc3c2cc(O)c(O)c3Cl)c1 (centres undefined) | inconclusive: 6.31 µM [inhibitor, partial curve] |
| CN1CCC(Nc2nc(Nc3ccc(Oc4ccccc4)cc3)c3c(=O)[nH]cc(Br)c3n2)CC1 | inactive |
| Cc1nc(N=Nc2ccc(C(=O)O)cc2)c(COP(=O)(O)O)c(C=O)c1O | inactive |
| CC(=O)N[C@H](C(=O)O)C(C)(C)SN=O | inconclusive: 0.355 µM [inhibitor, full curve, poor fit] |
| Cc1nc(C#Cc2ccnc(Cl)c2)c(C)n1-c1ccc(OC(F)(F)F)cc1 | inconclusive: 31.6 µM [inhibitor, partial curve] |
| Cc1cc(-n2c(=O)[nH]c(=O)n(C)c2=O)ccc1Oc1ccc(SC(F)(F)F)cc1 | inactive |
| Nc1nc2c(cnn2CCc2ccccc2)c2nc(-c3ccco3)nn12 | inconclusive: 2.24 µM [inhibitor, full curve] |
| CCOc1nc2c(N)ncnc2n1CC | inactive |
| COc1cc(-c2nc(N[C@H](CO)Cc3ccccc3)ccc2C(=O)NCCOc2ccccc2)cc(OC)c1OC | inconclusive: 50.1 µM [inhibitor, single point] |
| O=C(O)[C@H]1Cc2ccccc2CN1 | inconclusive: 3.16 µM [inhibitor, partial curve] |
| CC(C)(CO)Cc1cc(C(C)(C)C)c(O)c(C(C)(C)C)c1 | inactive |
| COc1ccc2cc1Oc1ccc(cc1)C[C@H]1c3c(cc4c(c3Oc3cc5c(cc3OC)CCN(C)[C@@H]5C2)OCO4)CCN1C | inactive |
| C/C=C/C[C@@H](C)[C@@H](O)[C@H]1C(=O)N[C@@H](CC)C(=O)N(C)CC(=O)N(C)[C@@H](CC(C)C)C(=O)N[C@@H](C(C)C)C(=O)N(C)[C@@H](CC(C)C)C(=O)N[C@@H](C)C(=O)N[C@H](C)C(=O)N(C)[C@@H](CC(C)C)C(=O)N(C)[C@@H](CC(C)C)C(=O)N(C)[C@H](C(C)C)C(=O)N1C | inconclusive: 1.26 µM [inhibitor, full curve] |
| CC1CCCCN1S(=O)(=O)c1ccc(N2CCCC2=O)cc1 (centres undefined) | inconclusive: 7.08 µM [inhibitor, full curve] |
| O=C(Nc1ccc(Cl)cc1)C1CCCN(C(=O)c2cccc(-c3ccco3)c2)C1 (centres undefined) | inconclusive: 11.2 µM [inhibitor, full curve] |
| CCCCC[C@H](CC(=O)NO)C(=O)N[C@H](C(=O)N1CCC[C@H]1CO)C(C)C | inactive |
| CNCCNS(=O)(=O)c1cccc2cnccc12 | inconclusive: 3.16 µM [inhibitor, full curve] |

Structural class, those above containing a halogen

| SMILES | Potency |
| --- | --- |
| O=C(c1ccc(OC(F)F)c(C#Cc2ccccn2)c1)N1Cc2cccnc2C1 | inconclusive: 39.8 µM [inhibitor, partial curve, poor fit] |
| CCCCC(=O)N1c2ccccc2NC2=C(C(=O)CCC2)C1c1ccccc1Cl (centres undefined) | inactive |
| CN1CCc2nc(C(=O)N[C@@H]3C[C@@H](C(=O)N(C)C)CC[C@@H]3NC(=O)C(=O)Nc3ccc(Cl)cn3)sc2C1 | inconclusive: 31.6 µM [inhibitor, full curve, poor fit] |
| Cc1cccc(C2CN(C)CCc3c2cc(O)c(O)c3Cl)c1 (centres undefined) | inconclusive: 6.31 µM [inhibitor, partial curve] |
| CN1CCC(Nc2nc(Nc3ccc(Oc4ccccc4)cc3)c3c(=O)[nH]cc(Br)c3n2)CC1 | inactive |
| Cc1nc(C#Cc2ccnc(Cl)c2)c(C)n1-c1ccc(OC(F)(F)F)cc1 | inconclusive: 31.6 µM [inhibitor, partial curve] |
| Cc1cc(-n2c(=O)[nH]c(=O)n(C)c2=O)ccc1Oc1ccc(SC(F)(F)F)cc1 | inactive |
| O=C(Nc1ccc(Cl)cc1)C1CCCN(C(=O)c2cccc(-c3ccco3)c2)C1 (centres undefined) | inconclusive: 11.2 µM [inhibitor, full curve] |

Next entries

| SMILES | Potency |
| --- | --- |
| COc1cccc(NC[C@@H](O)Cn2c3ccc(Br)cc3c3cc(Br)ccc32)c1 | inconclusive: 10 µM [inhibitor, full curve] |
| O=[N+]([O-])c1cc(Cl)ccc1S(=O)(=O)N1CCN(Cc2ccccc2)CC1 | inactive |
| Cc1cn([C@H]2CC(N=[N+]=[N-])[C@@H](CO)O2)c(=O)[nH]c1=O (some centres undefined) | inactive |
| CC(C)(F)C[C@@H](N[C@@H](c1ccc(-c2ccc(S(C)(=O)=O)cc2)cc1)C(F)(F)F)C(=O)NC1(C#N)CC1 | inactive |
| COc1cc(Br)c(S(=O)(=O)Nc2ccc(Cl)c(O[C@@H]3CCN(C)C3)c2)cc1OC | inactive |
| Cc1cccc(/C=C/c2ccccc2)n1 | inconclusive: 11.2 µM [inhibitor, partial curve] |
| Cc1ccc(NC(=O)C(=O)NC2CC(C)(C)NC(C)(C)C2)cc1 | inactive |
| CC#CCOC(=O)c1c(C)nc2sc3c(c2c1N)CCC(O)C3 (centres undefined) | inactive |
| N[C@@H](Cc1ccc(F)cc1)C(=O)O | inactive |
| CCOC(=O)N1c2ccc(C(F)(F)F)cc2C(N(Cc2cc(C(F)(F)F)cc(C(F)(F)F)c2)C(=O)OC)CC1CC (centres undefined) | inconclusive: 20 µM [inhibitor, full curve, poor fit] |
| O=C(c1ccc(F)cc1)C1CCN(CCn2c(=O)nc3n(c2=O)CCCC3)CC1 | inactive |
| CN[C@H](C(=O)N[C@H](C(=O)N(C)[C@H](/C=C(\C)C(=O)O)C(C)C)C(C)(C)C)C(C)(C)c1ccccc1 | inconclusive: 1.58 µM [inhibitor, full curve, poor fit] |
| Cc1cc(C)c(NC(=O)N(Cc2ccc3c(c2)Cc2ccccc2-3)C2CCCCCC2)c(C)c1 | inconclusive: 50.1 µM [inhibitor, partial curve, poor fit] |
| CC(NC(=O)C(O)C(C)C)C(=O)NC1C(=O)N(C)CCc2ccccc21 (centres undefined) | inconclusive: 0.891 µM [inhibitor, full curve, poor fit] |
| O=C(O)c1ccccc1NC(=O)N1CCC(c2ccccc2C(F)(F)F)CC1 | inactive |
| COc1cccc(C(=O)N2CCN(C(=O)COc3cccc(C)c3)CC2)c1OC | inactive |
| CC(/C=C/c1cccc(Oc2ccc(F)cc2)c1)N(O)C(N)=O (centres undefined) | inactive |
| CCCCCCCCCC[Si](C)(C)CCC(=O)NC(Cc1ccc(C)cc1)c1ccccc1 (centres undefined) | inconclusive: 31.6 µM [inhibitor, single point] |
| NC[C@H]1O[C@@H](n2cnc3c(N)ncnc32)[C@H](O)[C@@H]1O | inactive |
